According to PubChem BioAssay AID540276 (National Center for Advancing Translational Sciences (NCATS), 2011):
In all, about 300,000 compounds went through this assay and about 5,400 (1.8%) were called active. The shares of active, inactive and inconclusive entries below differ from those in the screen. Calls come from the whole dose curve; tested in HEK293 cells. Potencies of inconclusive entries are doubtful fits and often do not repeat.

Assay: qHTS for inhibitors of binding or entry into cells for Marburg Virus
Details: Marburg virus pseudotyped entry inhibition, cell reporter; series mostly up to 37.8 µM
Potency is the fitted concentration of half-maximal effect.

| SMILES | Potency |
| --- | --- |
| COc1cccc(CN2CCN(Cc3cc(OC)c(OC)cc3[N+](=O)[O-])CC2)c1 | inconclusive: 16.4 µM [inhibitor, single point] |
| O=c1[nH]nc(-c2ccc(F)cc2)cc1-c1ccccc1 | inactive |
| O=[N+]([O-])c1ccc(/C([O-])=C(/C(=S)Nc2ccccc2F)[n+]2ccccc2)cc1 | inactive |
| CN1C(=O)C(=Cc2ccccc2OCCOc2ccc([N+](=O)[O-])cc2)C(=O)N(C)C1=O | inconclusive: 35.5 µM [inhibitor, single point] |
| CCOc1ccccc1C(=O)Nc1cccc(-c2ccc(N3CCOCC3)nn2)c1 | inconclusive: 35.5 µM [inhibitor, single point] |
| O=C(COC(=O)CNC(=O)c1ccccc1)Nc1ccc(Cl)cn1 | inconclusive: 6.31 µM [activator, single point] |
| COc1ccccc1N1CCN(C(=O)Oc2ccccc2)CC1 | inactive |
| CCC(C)(C)c1nnc(NC(=O)c2cccc([N+](=O)[O-])c2)s1 | inconclusive: 20.6 µM [activator, partial curve, poor fit] |
| Cn1c(=O)c(/C(N)=N/OC(=O)c2ccccc2)cn(-c2ccccc2)c1=O | inconclusive: 25.1 µM [inhibitor, single point] |
| CC1=NN(c2ccccc2)C(=O)C1C=Nc1ccccc1O (stereo not drawn) | inconclusive: 10 µM [inhibitor, partial curve] |
| CC(=O)c1ccc(OCc2cc(C(=O)N3CCN(C4CCCC4)C(=O)C3)no2)cc1 | inactive |
| CN1CCN(C(=O)CN(C)S(=O)(=O)c2ccc(F)cc2)CC1 | inactive |
| O=C(c1n[nH]c2ccccc12)N1CCN(S(=O)(=O)c2ccc3ccccc3c2)CC1 | inactive |
| CCCCNC(=O)c1ccc(CNc2c(N3CCC(C(=O)OCC)CC3)c(=O)c2=O)cc1 | inconclusive: 23.1 µM [activator, single point] |
| N=c1sccn1CC(=O)NCCc1ccc(Cl)cc1 | inconclusive: 29.1 µM [inhibitor, single point] |
| Cn1c(O)c(N=Nc2nc(-c3ccccc3)cs2)c2ccccc21 | inconclusive: 0.517 µM [activator, full curve] |
| O=C(NCc1cccs1)C1CCC(=O)N(Cc2cccc(C(F)(F)F)c2)C1 (stereo not drawn) | inactive |
| COc1ccc(Nc2oc(COc3ccc(Cl)cc3)nc2C#N)cc1 | inconclusive: 14.1 µM [inhibitor, single point] |
| COc1cccc(/C=C/c2nc(C#N)c(N3CCN(C)CC3)o2)c1 | inactive |
| COc1cccc(C(=O)Nc2nnc(SCC(=O)NC3CCCC3)s2)c1 | inconclusive: 35.5 µM [inhibitor, single point] |
| Cc1ccc(S(=O)(=O)CCC(=O)OCC(=O)N2CCN(c3ccccc3)CC2)cc1 | inactive |
| Cc1cccn2cc(COc3ccc(-c4ccccc4)cc3)nc12 | inconclusive: 0.562 µM [inhibitor, full curve, poor fit] |
| COc1ccc2nc(NC(=O)c3cccc(S(=O)(=O)N4CCOCC4)c3)sc2c1 | inconclusive: 35.5 µM [inhibitor, single point] |
| CCCCCN1C(C(=O)c2ccccc2)=C(OC(=O)CC)c2ccccc2S1(=O)=O | inconclusive: 11.2 µM [inhibitor, partial curve, poor fit] |

| SMILES | Potency |
| --- | --- |
| CN1CCN(CCOC2c3ccccc3CSc3ccc(Cl)cc32)CC1 (stereo not drawn) | inconclusive: 14.6 µM [inhibitor, partial curve, poor fit] |
| Cc1ccc(NC(=O)CNC(c2ccccc2)c2ccccc2)c(F)c1 | inactive |
| CCc1ccc2c(c1)C(c1ccc(N3CCOCC3)cc1)=NNC(c1ccncc1)=N2 | inconclusive: 11.2 µM [inhibitor, single point] |
| FC(F)(F)c1cccc(Nc2c3c(nc4ccc(Cl)cc24)CCC3)c1 | inconclusive: 14.1 µM [inhibitor, single point] |
| COc1ccc(/C=N/NC(=O)C(=O)N2CCCCCC2)cc1O | inconclusive: 28.2 µM [activator, partial curve, poor fit] |
| O=C(NCCc1ccc(Cl)cc1)C(=O)c1c[nH]c2ccccc12 | inconclusive: 35.5 µM [inhibitor, single point] |
| COc1cccc(C(=O)Nc2nc3c(s2)CN(C)CC3)c1 | inactive |
| CC(=O)Nc1ccc(OCC(O)Cn2c3ccccc3c3ccccc32)c(C)c1 (stereo not drawn) | inactive |
| Cn1c(=O)c2c(nc(SCC(=O)Nc3ccccc3F)n2Cc2ccccc2F)n(C)c1=O | inactive |
| O=C(CSc1nncs1)N1c2ccccc2Sc2ccccc21 | inactive |
| CCOC(=O)c1cccc(NC(=O)Cn2ncc3c(=O)oc4ccccc4c32)c1 | inactive |
| Cc1nn(CC(=O)NC2CC2)c(=O)c2cc3cc(F)ccc3n12 | inactive |
| FC(F)(F)c1nnc2sc(-c3cccs3)nn12 | inactive |
| CSc1nncc(-c2ccc(F)c(F)c2)n1 | inconclusive: 31.6 µM [activator, single point] |
| Cc1ccc(NS(=O)(=O)c2ccc(-c3csc(C)n3)s2)c(C)c1 | inactive |
| CCc1ccc(C(=O)O)cc1 | inactive |
| CCN(CC)S(=O)(=O)c1c(OC)cc(C)c(Cl)c1C | inconclusive: 29.1 µM [inhibitor, single point] |
| CCN1C(=NCc2ccc(OC)cc2)N[C@@H](c2ccccc2)C(C(=O)OC)=C1C | inactive |
| CC(C(=O)Nc1ccc(F)cc1Cl)N(C)CCOc1ccccc1 (stereo not drawn) | inconclusive: 35.5 µM [inhibitor, partial curve, poor fit] |
| O=C(Nc1cccc2ncccc12)c1cc([N+](=O)[O-])ccc1Cl | inactive |
| CC1N/C(=C\C(=O)c2ccccc2)N(O)C1(C)C (stereo not drawn) | inconclusive: 4.47 µM [activator, single point] |
| CSc1nc2c(cc1C#N)CCCCC2 | inconclusive: 5.62 µM [activator, single point] |
| O=C(O)C1CC=CCC1C(=O)N1CC=C(c2ccccc2)CC1 (stereo not drawn) | inactive |
| COC(=O)c1cc(Br)ccc1NC(=O)Nc1ccccc1 | inconclusive: 0.794 µM [inhibitor, partial curve, poor fit] |

Fetched one by one from above (three):

| SMILES | Potency |
| --- | --- |
| CCN(CC)S(=O)(=O)c1c(OC)cc(C)c(Cl)c1C | inconclusive: 29.1 µM [inhibitor, single point] |
| CN1CCN(CCOC2c3ccccc3CSc3ccc(Cl)cc32)CC1 (stereo not drawn) | inconclusive: 14.6 µM [inhibitor, partial curve, poor fit] |
| O=C(O)C1CC=CCC1C(=O)N1CC=C(c2ccccc2)CC1 (stereo not drawn) | inactive |
